Among the data in article PMC3885427 are binding values, retold here.

Amino acid sequences for entries named in this document (tags omitted). A change or cut given only in a name is not applied to a line headed by its entry. Residues count along the entry.
UniProt O15266: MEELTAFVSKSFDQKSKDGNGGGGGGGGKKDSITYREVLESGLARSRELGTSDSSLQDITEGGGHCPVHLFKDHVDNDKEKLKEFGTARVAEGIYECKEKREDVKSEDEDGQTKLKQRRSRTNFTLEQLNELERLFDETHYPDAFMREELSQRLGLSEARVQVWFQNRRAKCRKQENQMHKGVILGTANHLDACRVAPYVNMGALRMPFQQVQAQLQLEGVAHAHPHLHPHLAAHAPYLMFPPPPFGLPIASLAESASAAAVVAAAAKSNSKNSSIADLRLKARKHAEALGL
UniProt O60902: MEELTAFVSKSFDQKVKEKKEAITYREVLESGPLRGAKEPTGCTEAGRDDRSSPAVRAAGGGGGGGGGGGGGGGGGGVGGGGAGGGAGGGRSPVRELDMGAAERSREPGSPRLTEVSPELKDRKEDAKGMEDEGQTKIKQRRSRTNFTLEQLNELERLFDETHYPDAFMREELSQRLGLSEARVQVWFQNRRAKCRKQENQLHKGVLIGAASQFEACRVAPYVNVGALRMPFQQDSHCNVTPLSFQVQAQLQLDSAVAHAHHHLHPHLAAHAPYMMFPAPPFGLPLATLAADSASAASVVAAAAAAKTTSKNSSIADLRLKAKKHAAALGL
SHOX2(139–331), yeast two-hybrid fusion: residues 139-331 of O60902
UniProt P35711: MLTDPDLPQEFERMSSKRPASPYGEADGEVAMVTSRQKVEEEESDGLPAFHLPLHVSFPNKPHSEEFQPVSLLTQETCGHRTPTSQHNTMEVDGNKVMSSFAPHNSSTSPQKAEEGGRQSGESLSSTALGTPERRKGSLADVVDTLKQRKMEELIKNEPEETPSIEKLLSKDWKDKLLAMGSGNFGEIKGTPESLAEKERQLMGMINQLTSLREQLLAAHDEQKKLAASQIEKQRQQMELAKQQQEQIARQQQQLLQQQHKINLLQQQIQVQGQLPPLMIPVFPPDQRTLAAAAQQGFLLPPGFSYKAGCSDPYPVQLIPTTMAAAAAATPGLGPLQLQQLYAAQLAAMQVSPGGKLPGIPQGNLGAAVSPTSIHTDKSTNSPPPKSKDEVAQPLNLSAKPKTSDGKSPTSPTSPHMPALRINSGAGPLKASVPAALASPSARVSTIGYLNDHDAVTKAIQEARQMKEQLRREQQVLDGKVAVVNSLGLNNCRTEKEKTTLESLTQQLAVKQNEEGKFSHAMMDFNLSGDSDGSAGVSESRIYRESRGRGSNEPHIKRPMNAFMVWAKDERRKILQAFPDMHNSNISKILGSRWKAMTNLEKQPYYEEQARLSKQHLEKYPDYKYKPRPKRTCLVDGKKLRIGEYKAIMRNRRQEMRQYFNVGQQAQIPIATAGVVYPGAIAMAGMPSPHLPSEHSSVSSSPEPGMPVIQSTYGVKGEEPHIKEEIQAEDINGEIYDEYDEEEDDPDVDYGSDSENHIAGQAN

No constants are given. Whether binding was seen depends on the method and setting. For some assays here: Binding seen in cells or lysates may run through a third protein. Some entries that bind do so weakly or less than the wild type.

For assay [1], the target named is SHOX (SHOXa), full-length, yeast two-hybrid fusion (human) (UniProt O15266). In words: two-hybrid; S. cerevisiae Y187 cotransformed with pGBT9 (GAL4 binding domain) and pACT2 (GAL4 activation domain) fusions; β-galactosidase liquid assay with CRPG as substrate; fragments and mutants given as percent of full-length or wild-type protein; empty vectors as negative controls.

Assay [2] has as its target SHOX2a (called SHOX2 in the paper), full-length, yeast two-hybrid fusion (human) (UniProt O60902). The assay is described as above.
The target in the next assay is FLAG:SHOX2 (human) (UniProt O60902). Kind of assay: co-IP; nuclear extracts of HEK293 cells overexpressing FLAG:SHOX2 and HA:SOX5, HA:SOX6 or HA:SHOX, immunoprecipitated with anti-FLAG-agarose; blots probed with SHOX2, SOX5, SOX6 and SHOX antibodies; cells with the HA protein only as negative controls.
The target in assay [3] is SHOX p.A170P, yeast two-hybrid fusion (human) (UniProt O15266). Kind of assay: two-hybrid; S. cerevisiae Y187 cotransformed with pGBT9 (GAL4 binding domain) and pACT2 (GAL4 activation domain) fusions; β-galactosidase liquid assay with CRPG as substrate; fragments and mutants given as percent of full-length or wild-type protein; empty vectors as negative controls.
Assay [4] addresses SHOX p.D278A, yeast two-hybrid fusion (human) (UniProt O15266). The assay is described as above.
In assay [5] the target is SHOX p.L132V, yeast two-hybrid fusion (human) (UniProt O15266). The assay is described as above.
The target of assay [6] is SOX5, yeast two-hybrid fusion (UniProt P35711). The assay is described as above.

On to “SHOX2(139–331), yeast two-hybrid fusion (from UniProt O60902-1 139-331) (domain or fragment)”, for which the binding result in assay [1] and in assay [2] was “binds” in each case.
On to HA:SHOX (from UniProt O15266 1-292), for which, in the assay with FLAG:SHOX2 (human), the binding entry was “binds”.
As for “SHOX2 p.R319P, yeast two-hybrid fusion (from UniProt O60902-1 1-331)”, the binding result in assay [2] is reported as “binds”.
Still for that read-out and setting: the entry for “SHOX2 p.L155V, yeast two-hybrid fusion (from UniProt O60902-1 1-331)” is “binds”.
On the same count and under the same terms, under “SHOX2 p.A193P, yeast two-hybrid fusion (from UniProt O60902-1 1-331)” stands “binds”.
Consider HA:SOX5 (from UniProt P35711 1-763), for which the binding entry with FLAG:SHOX2 (human) was “binds”.
Consider “SHOX2a (called SHOX2 in the paper), full-length, yeast two-hybrid fusion (from UniProt O60902-1 1-331)”, for which the binding result in assay [1] was “binds”; in assay [3], “binds”; in assay [4], “binds”; in assay [5] it was “binds”; in assay [2], “binds”; in assay [6], “binds weakly”.
Turning to “SHOX2 p.R196C, yeast two-hybrid fusion (from UniProt O60902-1 1-331)”, the binding result in assay [2] was “binds”.
